The other results are listed elsewhere or left out.
Key:
Test in all cases: log2 fold change, soluble protein after heating vs DMSO (PISA); higher = thermal stabilisation; K562 lysate, 10 uM; active = over 0.2 and 3.5 SD of the protein, either way, in both replicates (recomputed)
vorinostat = compound: O=C(CCCCCCC(=O)Nc1ccccc1)NO [vorinostat]
In short: (§1)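 A 30 min treatment with 10 μM compound was applied to crude K562 extract at 1 mg/mL protein in PBS pH 7.4 with 1 mM MgCl2. Heating for 3 min spanned 48°C-58°C, after which aliquots were pooled, adjusted to 0.5% NP-40 at 4°C and spun at 21,000xg for 90 min. TMTpro 16plex LC-MS/MS of the supernatant, with channel sums equalised, gave values recorded as log-two fold change in thermal stability against solvent controls, from duplicates.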

By UniProt entry, the sequences of proteins in these tests, tags left out. Where a name states a change or a piece, a line headed by the entry shows the natural chain unless it says otherwise.
UniProt Q9NWM0: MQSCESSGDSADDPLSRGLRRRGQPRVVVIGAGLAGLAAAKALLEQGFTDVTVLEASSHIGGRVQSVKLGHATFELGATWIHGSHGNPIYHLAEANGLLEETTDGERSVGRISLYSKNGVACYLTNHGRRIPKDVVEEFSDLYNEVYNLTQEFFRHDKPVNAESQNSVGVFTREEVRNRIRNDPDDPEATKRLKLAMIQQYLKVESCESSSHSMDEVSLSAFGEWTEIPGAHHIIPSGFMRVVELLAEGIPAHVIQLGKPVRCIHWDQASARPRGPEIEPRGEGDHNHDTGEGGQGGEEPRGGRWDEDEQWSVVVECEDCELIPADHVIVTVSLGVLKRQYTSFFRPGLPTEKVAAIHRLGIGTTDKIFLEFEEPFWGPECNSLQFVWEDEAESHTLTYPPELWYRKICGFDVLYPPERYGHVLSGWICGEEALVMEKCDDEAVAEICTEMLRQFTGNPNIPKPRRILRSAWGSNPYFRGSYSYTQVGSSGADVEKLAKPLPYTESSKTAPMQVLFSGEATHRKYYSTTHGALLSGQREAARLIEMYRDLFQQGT
UniProt Q9H4I9: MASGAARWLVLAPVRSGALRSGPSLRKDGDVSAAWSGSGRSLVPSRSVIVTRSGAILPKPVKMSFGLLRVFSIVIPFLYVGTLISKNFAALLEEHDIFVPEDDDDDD
UniProt Q07617: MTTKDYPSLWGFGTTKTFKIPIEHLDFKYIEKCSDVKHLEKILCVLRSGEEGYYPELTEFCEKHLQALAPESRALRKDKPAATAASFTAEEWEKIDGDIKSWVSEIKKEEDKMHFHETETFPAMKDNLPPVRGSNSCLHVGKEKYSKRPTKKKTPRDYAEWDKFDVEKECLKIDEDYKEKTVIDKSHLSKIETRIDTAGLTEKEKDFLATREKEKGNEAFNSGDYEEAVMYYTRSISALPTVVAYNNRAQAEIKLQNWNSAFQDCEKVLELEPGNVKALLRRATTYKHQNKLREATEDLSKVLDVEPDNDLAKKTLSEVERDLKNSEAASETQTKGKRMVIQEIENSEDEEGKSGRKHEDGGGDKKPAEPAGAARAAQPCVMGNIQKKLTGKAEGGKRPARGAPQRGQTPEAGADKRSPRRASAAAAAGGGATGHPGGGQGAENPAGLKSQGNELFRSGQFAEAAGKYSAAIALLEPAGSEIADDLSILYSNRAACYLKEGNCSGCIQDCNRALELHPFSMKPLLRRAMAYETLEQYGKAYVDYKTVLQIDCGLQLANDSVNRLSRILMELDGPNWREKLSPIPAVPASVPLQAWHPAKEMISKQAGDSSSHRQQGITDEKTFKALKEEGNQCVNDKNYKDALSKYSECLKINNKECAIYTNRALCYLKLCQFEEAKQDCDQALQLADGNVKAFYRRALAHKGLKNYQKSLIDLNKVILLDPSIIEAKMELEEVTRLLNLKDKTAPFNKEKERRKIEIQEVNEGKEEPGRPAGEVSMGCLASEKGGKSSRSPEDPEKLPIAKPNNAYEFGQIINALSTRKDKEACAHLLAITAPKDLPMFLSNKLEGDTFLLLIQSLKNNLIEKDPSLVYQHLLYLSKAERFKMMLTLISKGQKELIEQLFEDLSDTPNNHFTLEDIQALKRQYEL
UniProt Q92543: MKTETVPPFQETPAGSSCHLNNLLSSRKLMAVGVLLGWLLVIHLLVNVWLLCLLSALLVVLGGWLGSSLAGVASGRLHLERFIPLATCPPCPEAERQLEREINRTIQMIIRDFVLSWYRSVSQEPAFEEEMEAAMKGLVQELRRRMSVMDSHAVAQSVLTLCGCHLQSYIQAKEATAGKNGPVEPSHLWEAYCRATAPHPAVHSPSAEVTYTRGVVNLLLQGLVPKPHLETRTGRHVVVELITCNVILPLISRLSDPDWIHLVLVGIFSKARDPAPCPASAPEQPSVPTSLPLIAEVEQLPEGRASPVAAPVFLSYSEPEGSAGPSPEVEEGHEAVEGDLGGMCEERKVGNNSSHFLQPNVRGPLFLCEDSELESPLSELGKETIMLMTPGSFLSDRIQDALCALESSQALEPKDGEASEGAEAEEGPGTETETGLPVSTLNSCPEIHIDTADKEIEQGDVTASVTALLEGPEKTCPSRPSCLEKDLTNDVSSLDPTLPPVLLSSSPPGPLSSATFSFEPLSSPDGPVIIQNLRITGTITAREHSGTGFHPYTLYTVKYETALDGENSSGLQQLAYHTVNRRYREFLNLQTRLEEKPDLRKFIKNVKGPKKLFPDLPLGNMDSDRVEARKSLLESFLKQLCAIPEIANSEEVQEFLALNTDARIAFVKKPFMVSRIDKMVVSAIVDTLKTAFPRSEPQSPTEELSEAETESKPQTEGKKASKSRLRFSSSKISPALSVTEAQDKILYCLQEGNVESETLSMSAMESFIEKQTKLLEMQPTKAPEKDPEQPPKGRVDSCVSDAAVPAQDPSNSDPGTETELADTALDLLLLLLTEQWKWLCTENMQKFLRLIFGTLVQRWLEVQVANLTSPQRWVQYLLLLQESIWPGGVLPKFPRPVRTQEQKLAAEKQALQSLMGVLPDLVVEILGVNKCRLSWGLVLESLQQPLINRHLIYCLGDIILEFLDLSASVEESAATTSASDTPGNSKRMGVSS
UniProt B2RUZ4: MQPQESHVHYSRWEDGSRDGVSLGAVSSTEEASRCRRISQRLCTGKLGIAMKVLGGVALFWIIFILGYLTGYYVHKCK
UniProt P0DJ93: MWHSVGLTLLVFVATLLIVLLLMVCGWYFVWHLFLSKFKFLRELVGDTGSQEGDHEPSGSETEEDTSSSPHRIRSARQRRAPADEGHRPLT
UniProt P02814: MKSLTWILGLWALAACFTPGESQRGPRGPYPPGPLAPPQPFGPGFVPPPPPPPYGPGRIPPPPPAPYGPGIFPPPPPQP
UniProt Q15506: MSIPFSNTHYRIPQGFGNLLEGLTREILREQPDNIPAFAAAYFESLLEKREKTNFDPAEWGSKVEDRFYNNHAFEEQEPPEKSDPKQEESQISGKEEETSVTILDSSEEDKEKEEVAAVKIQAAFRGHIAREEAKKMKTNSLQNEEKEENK
UniProt Q92484: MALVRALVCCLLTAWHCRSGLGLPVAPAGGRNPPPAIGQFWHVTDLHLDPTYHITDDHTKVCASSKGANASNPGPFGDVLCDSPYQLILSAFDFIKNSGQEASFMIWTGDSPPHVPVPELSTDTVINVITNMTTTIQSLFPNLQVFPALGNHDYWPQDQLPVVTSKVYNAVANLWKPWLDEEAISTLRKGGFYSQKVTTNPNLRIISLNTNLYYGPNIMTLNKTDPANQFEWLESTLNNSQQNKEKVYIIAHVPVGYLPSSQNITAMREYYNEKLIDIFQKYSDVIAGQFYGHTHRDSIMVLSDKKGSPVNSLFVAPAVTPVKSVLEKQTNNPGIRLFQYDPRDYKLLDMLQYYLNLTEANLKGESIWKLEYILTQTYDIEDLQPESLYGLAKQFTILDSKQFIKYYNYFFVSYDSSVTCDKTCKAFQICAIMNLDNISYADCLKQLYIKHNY
UniProt Q9H3E2: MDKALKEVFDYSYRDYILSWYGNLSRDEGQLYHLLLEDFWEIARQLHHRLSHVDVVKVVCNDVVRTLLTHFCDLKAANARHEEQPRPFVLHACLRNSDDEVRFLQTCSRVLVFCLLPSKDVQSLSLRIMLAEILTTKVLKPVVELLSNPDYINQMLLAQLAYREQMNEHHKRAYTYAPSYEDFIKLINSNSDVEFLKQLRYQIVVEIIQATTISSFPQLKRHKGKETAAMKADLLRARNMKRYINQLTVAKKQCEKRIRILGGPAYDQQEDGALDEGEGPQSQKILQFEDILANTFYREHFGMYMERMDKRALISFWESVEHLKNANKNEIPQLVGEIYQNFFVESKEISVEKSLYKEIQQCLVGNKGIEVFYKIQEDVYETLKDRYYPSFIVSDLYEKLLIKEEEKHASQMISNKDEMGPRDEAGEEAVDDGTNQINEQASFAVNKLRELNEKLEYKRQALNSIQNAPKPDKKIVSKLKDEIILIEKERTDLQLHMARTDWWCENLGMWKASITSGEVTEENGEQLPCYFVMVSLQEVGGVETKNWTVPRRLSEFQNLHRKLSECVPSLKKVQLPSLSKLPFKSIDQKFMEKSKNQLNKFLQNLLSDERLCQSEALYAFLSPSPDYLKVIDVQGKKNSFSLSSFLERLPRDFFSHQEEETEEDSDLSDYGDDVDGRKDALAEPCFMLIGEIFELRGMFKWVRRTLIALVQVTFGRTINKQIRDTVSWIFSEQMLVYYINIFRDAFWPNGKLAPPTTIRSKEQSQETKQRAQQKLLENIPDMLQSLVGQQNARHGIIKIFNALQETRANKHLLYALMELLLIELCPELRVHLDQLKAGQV
UniProt Q6STE5, whole entry, looked up: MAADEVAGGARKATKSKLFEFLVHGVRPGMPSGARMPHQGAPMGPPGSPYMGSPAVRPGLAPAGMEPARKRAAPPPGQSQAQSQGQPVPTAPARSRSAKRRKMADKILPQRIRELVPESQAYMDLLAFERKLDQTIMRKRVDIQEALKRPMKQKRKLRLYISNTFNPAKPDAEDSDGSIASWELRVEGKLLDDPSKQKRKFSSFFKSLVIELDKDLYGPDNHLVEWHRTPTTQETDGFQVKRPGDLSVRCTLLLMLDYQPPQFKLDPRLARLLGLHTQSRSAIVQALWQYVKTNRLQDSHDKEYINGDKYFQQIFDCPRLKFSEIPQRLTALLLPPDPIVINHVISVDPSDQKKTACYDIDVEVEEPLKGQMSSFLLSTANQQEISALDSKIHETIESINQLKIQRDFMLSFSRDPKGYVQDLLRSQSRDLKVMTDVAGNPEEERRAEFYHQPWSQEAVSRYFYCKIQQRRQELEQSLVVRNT
UniProt P58511: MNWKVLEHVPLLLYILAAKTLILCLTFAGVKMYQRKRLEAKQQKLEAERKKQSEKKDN
UniProt Q9NXE4: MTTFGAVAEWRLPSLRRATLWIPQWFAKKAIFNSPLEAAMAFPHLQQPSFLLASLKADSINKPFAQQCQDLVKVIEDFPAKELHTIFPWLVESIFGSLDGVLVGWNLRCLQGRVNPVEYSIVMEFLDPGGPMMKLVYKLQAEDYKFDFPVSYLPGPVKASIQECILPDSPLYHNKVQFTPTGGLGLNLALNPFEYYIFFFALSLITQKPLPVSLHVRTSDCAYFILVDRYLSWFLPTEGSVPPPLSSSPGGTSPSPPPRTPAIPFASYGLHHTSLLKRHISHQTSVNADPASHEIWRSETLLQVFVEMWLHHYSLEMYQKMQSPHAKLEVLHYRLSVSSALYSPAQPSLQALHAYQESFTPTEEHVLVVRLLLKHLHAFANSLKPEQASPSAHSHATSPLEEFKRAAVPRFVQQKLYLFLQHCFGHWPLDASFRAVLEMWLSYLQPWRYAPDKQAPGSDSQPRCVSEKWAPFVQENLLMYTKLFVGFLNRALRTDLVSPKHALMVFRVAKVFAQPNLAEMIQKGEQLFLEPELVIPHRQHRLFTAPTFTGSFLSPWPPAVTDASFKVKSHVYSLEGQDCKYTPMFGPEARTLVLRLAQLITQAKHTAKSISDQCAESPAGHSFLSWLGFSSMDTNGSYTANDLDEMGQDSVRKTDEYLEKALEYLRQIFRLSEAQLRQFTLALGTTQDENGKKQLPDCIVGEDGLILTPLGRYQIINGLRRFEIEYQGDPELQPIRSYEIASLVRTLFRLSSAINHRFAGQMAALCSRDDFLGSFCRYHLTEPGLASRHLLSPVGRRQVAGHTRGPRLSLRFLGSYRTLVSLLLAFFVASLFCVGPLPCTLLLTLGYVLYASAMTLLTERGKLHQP
UniProt Q9Y5X0: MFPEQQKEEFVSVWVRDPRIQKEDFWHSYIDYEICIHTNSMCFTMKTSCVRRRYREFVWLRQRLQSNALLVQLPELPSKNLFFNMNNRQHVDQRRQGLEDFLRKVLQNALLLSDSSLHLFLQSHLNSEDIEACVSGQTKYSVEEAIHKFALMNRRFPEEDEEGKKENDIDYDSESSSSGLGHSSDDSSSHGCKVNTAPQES
UniProt Q02086: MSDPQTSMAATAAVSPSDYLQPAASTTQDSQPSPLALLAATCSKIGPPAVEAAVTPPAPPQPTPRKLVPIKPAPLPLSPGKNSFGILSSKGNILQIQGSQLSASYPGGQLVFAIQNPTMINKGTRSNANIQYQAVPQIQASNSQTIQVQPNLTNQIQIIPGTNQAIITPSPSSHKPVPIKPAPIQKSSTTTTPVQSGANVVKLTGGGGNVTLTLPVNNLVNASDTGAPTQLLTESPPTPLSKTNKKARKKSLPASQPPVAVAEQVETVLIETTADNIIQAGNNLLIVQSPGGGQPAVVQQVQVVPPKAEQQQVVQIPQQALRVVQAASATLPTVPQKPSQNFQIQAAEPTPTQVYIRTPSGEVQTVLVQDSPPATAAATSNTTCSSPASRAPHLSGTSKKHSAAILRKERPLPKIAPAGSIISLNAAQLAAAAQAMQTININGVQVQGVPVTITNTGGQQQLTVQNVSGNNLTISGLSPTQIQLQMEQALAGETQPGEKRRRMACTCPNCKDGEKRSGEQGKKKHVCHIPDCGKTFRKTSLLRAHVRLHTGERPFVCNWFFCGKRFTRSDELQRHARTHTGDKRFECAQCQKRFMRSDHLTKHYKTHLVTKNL

silmitasertib = compound: O=C(O)c1ccc2c(c1)nc(Nc1cccc(Cl)c1)c1ccncc12 [silmitasertib]
In short: as §1

[1] = compound: O=C1NC(=O)C(c2cnc3ccccn23)=C1c1cn2c3c(cc(F)cc13)CN(C(=O)N1CCCCC1)CC2
In short: as §1

entospletinib = compound: c1cn2cc(-c3ccc4cn[nH]c4c3)nc(Nc3ccc(N4CCOCC4)cc3)c2n1 [entospletinib]
In short: as §1

[2] = compound: NCC(=O)Nc1ccc(-n2nc(C(F)(F)F)cc2-c2ccc3c(ccc4ccccc43)c2)cc1
In short: as §1

Row | Target | log2 fold change (vorinostat) | log2 fold change (silmitasertib) | log2 fold change [1] | log2 fold change (entospletinib) | log2 fold change [2]
1 | SNX29 (UniProt Q8TEQ0) | inactive: -0.339 | inactive: 0.03 | inactive: 0.092 | inactive: -0.014 | 
2 | SOD3 (UniProt P08294) |  |  |  | inactive: 0.028 | inactive: 0.003
3 | SNX33 (UniProt Q8WV41) |  |  | inactive: 0.013 |  | 
4 | SMOX isoform 6 (UniProt Q9NWM0) | inactive: 0.074 | inactive: -0.198 |  |  | 
5 | SMARCA4 isoform 4 (UniProt P51532) | inactive: 0.166 | inactive: -0.198 | inactive: 0.119 | inactive: -0.083 | 
6 | SNAPC2 (UniProt Q13487) | active: -0.631 | inactive: -0.122 | inactive: -0.086 |  | 
7 | SMDT1 (UniProt Q9H4I9) | inactive: 0.04 | inactive: -0.073 |  |  | 
8 | SOX11 (UniProt P35716) |  |  | inactive: 0.158 |  | inactive: 0.007
9 | SPAG1 (UniProt Q07617) |  |  | inactive: -0.061 |  | inactive: 0.227
10 | SMPD1 (UniProt P17405) | inactive: 0.073 | inactive: 0.02 | inactive: -0.052 |  | 
11 | SNX19 (UniProt Q92543) | inactive: -0.182 | inactive: 0.038 | inactive: 0.073 | inactive: -0.029 | 
12 | SMIM1 (UniProt B2RUZ4) | inactive: 0.177 | inactive: -0.076 | inactive: 0.12 | inactive: 0.042 | 
13 | SPAG9 isoform 4 (UniProt O60271) |  |  | inactive: -0.031 | inactive: 0.042 | inactive: 0.063
14 | SNX30 (UniProt Q5VWJ9) | inactive: 0.087 | inactive: 0.016 | inactive: -0.149 |  | 
15 | SMIM13 (UniProt P0DJ93) | inactive: 0.205 | inactive: -0.041 | inactive: -0.015 |  | 
16 | SMR3B (UniProt P02814) |  |  | inactive: 0.12 | inactive: -0.536 | 

Some of the entries above in another layout.
Row,Target,log2 fold change (vorinostat),log2 fold change (silmitasertib),log2 fold change [1],log2 fold change (entospletinib),log2 fold change [2]
13,SPAG9 isoform 4 (UniProt O60271),,,inactive: -0.031,inactive: 0.042,inactive: 0.063
16,SMR3B (UniProt P02814),,,inactive: 0.12,inactive: -0.536,

Remaining list, next part.

Row | Target | log2 fold change (vorinostat) | log2 fold change (silmitasertib) | log2 fold change [1] | log2 fold change (entospletinib) | log2 fold change [2]
17 | SP3 (UniProt Q02447) | inactive: 0.082 | inactive: -0.029 | inactive: 0.015 | inactive: 0.039 | 
18 | SPA17 (UniProt Q15506) |  |  | inactive: 0.022 | inactive: -0.025 | inactive: 0.049
19 | SMYD4 (UniProt Q8IYR2) | inactive: -0.018 | inactive: -0.166 | inactive: 0.115 |  | 
20 | SNX13 (UniProt Q9Y5W8) | inactive: 0.066 | inactive: 0.234 | inactive: -0.063 |  | 
21 | SMPDL3A (UniProt Q92484) |  |  |  | inactive: -0.026 | inactive: 0.112
22 | SNX25 (UniProt Q9H3E2) | inactive: -0.178 | inactive: 0.013 | inactive: -0.054 | inactive: -0.001 | 
23 | SNAP47 (UniProt Q5SQN1) | inactive: -0.328 | inactive: 0.01 | inactive: 0.018 | inactive: 0.066 | 
24 | SMARCD3 (UniProt Q6STE5) | inactive: -0.092 | inactive: -0.002 |  |  | 
25 | SMIM11A (UniProt P58511) |  |  | inactive: -0.029 | inactive: 0.123 | inactive: -0.032
26 | SMPD4 isoform 4 (UniProt Q9NXE4) |  |  |  | inactive: -0.133 | inactive: -0.09
27 | SMPDL3B (UniProt Q92485) |  |  | inactive: -0.071 | inactive: -0.255 | inactive: 0.05
28 | SMPD2 (UniProt O60906) | inactive: 0.261 | active: -1.47 |  | inactive: 0.058 | 
29 | SNAPC3 (UniProt Q92966) | inactive: -0.382 | inactive: -0.105 | inactive: -0.003 | inactive: -0.106 | 
30 | SNX10 (UniProt Q9Y5X0) | inactive: -0.057 | inactive: 0.001 | inactive: 0.117 |  | 
31 | SP2 (UniProt Q02086) |  |  | inactive: 0.067 | inactive: 0.057 | 
